# Results: the supplement of paper PMC7238544
# Where a name gives a salt, the structure may show the parent alone. ± gives the standard deviation of the averaged measurements. The list shows a part of the results. The data scatter; read single values as rough.
# Legend:
# [1] = tested on: hAMSC donor 1; test: Hoechst total cell count ratio vs vehicle control; higher = more cells (less toxicity)
# [2] = tested on: hAMSC donor 2; test: as above
# [3] = tested on: hAMSC donor 2; test: transgenic luciferase activity (RLU/mg protein) fold change vs vehicle control (ratio); higher = more transgene expression; conditions: priming compound concentration 13 µM
# [4] = tested on: hAMSC donor 1; test: transfection efficiency (EGFP+ cells / Hoechst count) fold change vs vehicle control (ratio); higher = enhanced transfection
# [5] = tested on: hAMSC donor 2; test: as above
# [6] = tested on: hAMSC donor 1; test: transgenic luciferase activity (RLU/mg protein) fold change vs vehicle control (ratio); hAMSC are human adipose-derived mesenchymal stem cells given an EGFP-luciferase plasmid by lipofection; higher = more transgene expression
# [7] = priming compound concentration 0.2 µM
# [8] = priming compound concentration 1.7 µM
# [9] = priming compound concentration 13 µM
Compound,"Hoechst total cell count ratio [1, 7]","Hoechst total cell count ratio [1, 8]","Hoechst total cell count ratio [1, 9]","Hoechst total cell count ratio [2, 7]","Hoechst total cell count ratio [2, 8]","Hoechst total cell count ratio [2, 9]",transgenic luciferase activity [3],"transfection efficiency [4, 7]","transfection efficiency [4, 8]","transfection efficiency [4, 9]","transfection efficiency [5, 7]","transfection efficiency [5, 8]","transfection efficiency [5, 9]","transgenic luciferase activity [6, 7]","transgenic luciferase activity [6, 9]","transgenic luciferase activity [6, 8]"
C[C@]12CCC(=O)C[C@@H]1CC[C@@H]1[C@@H]2CC[C@@]2(C)[C@H]1CC[C@]2(C)O [Mestanolone],1.48 ± 0.028,1.13 ± 0.17,1.84 ± 0.24,1 ± 0.071,1.02 ± 0.046,0.94 ± 0.017,0.875 ± 0.12,1.04 ± 0.14,1.09 ± 0.2,0.586 ± 0.24,0.912 ± 0.072,1.2 ± 0.1,0.923 ± 0.13,–,–,–
C[C@]12CC[C@H]3[C@@H](CCC4=CC(=O)CC[C@@H]43)[C@@H]1CC[C@@H]2O [19-Nortestosterone],1.26 ± 0.08,1.39 ± 0.18,1.05 ± 0.12,1.11 ± 0.095,1.11 ± 0.017,1.1 ± 0.12,–,0.812 ± 0.081,0.799 ± 0.17,1.29 ± 0.63,1.05 ± 0.17,0.967 ± 0.13,0.91 ± 0.28,1.03 ± 0.19,–,–
CN1CCC23CCCCC2C1Cc1ccc(O)cc13 [Dextrorphan D-tartrate],1.77 ± 0.096,1.19 ± 0.16,1.98 ± 0.29,1.15 ± 0.052,1.08 ± 0.064,1.21 ± 0.025,0.648 ± 0.28,0.701 ± 0.057,1.28 ± 0.16,0.596 ± 0.28,1.03 ± 0.21,1.02 ± 0.073,0.824 ± 0.11,–,–,–
CNCC(O)c1ccc(O)cc1 (stereo not given) [Synephrine],1.41 ± 0.1,1.26 ± 0.31,0.979 ± 0.15,1.22 ± 0.21,0.962 ± 0.12,1.3 ± 0.14,–,0.842 ± 0.18,1.03 ± 0.091,1.19 ± 0.27,1.2 ± 0.31,1.11 ± 0.12,0.966 ± 0.19,–,1.07 ± 0.27,–
Oc1ccc2c3c1O[C@H]1[C@@H](O)CC[C@@]4(O)[C@@H](C2)N(CC2CCC2)CC[C@]314 [Nalbuphine hydrochloride],1.46 ± 0.11,1.39 ± 0.055,1.24 ± 0.13,1.18 ± 0.16,1.24 ± 0.077,1.15 ± 0.22,–,1.12 ± 0.23,0.886 ± 0.2,1.25 ± 0.28,1.02 ± 0.14,0.937 ± 0.15,1.47 ± 0.43,–,0.677 ± 0.27,–
COc1cc([C@@H]2c3cc4c(cc3[C@H](O)[C@H]3COC(=O)[C@H]23)OCO4)cc(OC)c1OC [Podofilox],1.25 ± 0.15,0.673 ± 0.053,0.73 ± 0.067,0.791 ± 0.051,0.738 ± 0.075,0.775 ± 0.25,–,0.77 ± 0.18,0.55 ± 0.13,0.622 ± 0.042,0.8 ± 0.15,0.769 ± 0.095,0.766 ± 0.23,–,–,0.356 ± 0.096
NC(=O)OCCCc1ccccc1 [Phenprobamate],1.41 ± 0.073,1.47 ± 0.13,1.2 ± 0.078,1.13 ± 0.046,0.746 ± 0.069,0.75 ± 0.093,–,1.03 ± 0.25,0.773 ± 0.18,0.74 ± 0.16,0.886 ± 0.095,1.47 ± 0.034,1.17 ± 0.13,–,0.868 ± 0.12,–
COc1cc2c(cc1OC)[C@@]13CCN4CC5=CCO[C@H]6CC(=O)N2[C@H]1[C@H]6[C@H]5C[C@H]43 [Brucine],1.333 ± 0.0021,1.31 ± 0.1,1.33 ± 0.036,1.21 ± 0.24,1.23 ± 0.036,1.3 ± 0.25,–,1.06 ± 0.036,1.52 ± 0.52,0.714 ± 0.28,0.891 ± 0.25,1.14 ± 0.072,0.694 ± 0.14,–,0.729 ± 0.5,–
CN1[C@@H]2C[C@@H](OC(=O)[C@H](CO)c3ccccc3)C[C@H]1[C@@H]1O[C@@H]12 [Scopolamine hydrobromide],1.07 ± 0.093,1.22 ± 0.15,1.31 ± 0.12,0.861 ± 0.12,1.03 ± 0.16,0.994 ± 0.036,0.525 ± 0.055,0.917 ± 0.11,0.873 ± 0.087,0.998 ± 0.19,1.41 ± 0.17,1.21 ± 0.015,1.33 ± 0.19,–,–,–
CC(C)[C@]12O[C@H]1[C@@H]1O[C@]13[C@]1(O[C@H]1C[C@H]1C4=C(CC[C@@]13C)C(=O)OC4)[C@@H]2O [Triptolide],0.639 ± 0.025,0.42 ± 0.088,0.428 ± 0.053,0.318 ± 0.067,0.322 ± 0.061,0.198 ± 0.008,0.00467 ± 0.0049,0.35 ± 0.025,0.273 ± 0.16,0.127 ± 0.092,0.781 ± 0.32,0.284 ± 0.19,0.0734 ± 0.1,–,–,–
Oc1ccc2c3c1O[C@H]1c4[nH]c5ccccc5c4C[C@@]4(O)[C@@H](C2)N(CC2CC2)CC[C@]314 [Naltrindole hydrochloride hydrate],1.12 ± 0.15,1.44 ± 0.085,1.27 ± 0.2,0.847 ± 0.074,1.11 ± 0.1,0.898 ± 0.17,0.494 ± 0.083,0.879 ± 0.12,0.885 ± 0.34,0.658 ± 0.14,1.11 ± 0.19,1.14 ± 0.12,0.999 ± 0.081,–,–,–
NC(=O)C[S+]([O-])C(c1ccccc1)c1ccccc1 (stereo not given) [Modafinil],1.09 ± 0.13,1.16 ± 0.1,1.49 ± 0.34,1.16 ± 0.072,1.22 ± 0.15,1.04 ± 0.063,1.47 ± 0.045,0.974 ± 0.12,0.905 ± 0.12,0.714 ± 0.21,1.01 ± 0.078,1.27 ± 0.3,1.17 ± 0.15,–,–,–
CCCN1C[C@H](CSC)C[C@@H]2c3cccc4[nH]cc(c34)C[C@H]21 [Pergolide mesylate],2.08 ± 1.5,1.41 ± 0.15,1.27 ± 0.16,0.958 ± 0.025,1.46 ± 0.083,1.25 ± 0.33,–,0.506 ± 0.51,0.913 ± 0.16,0.87 ± 0.37,1.1 ± 0.04,0.861 ± 0.13,0.956 ± 0.14,0.744 ± 0.67,–,–
CCN(C(C)=O)c1cccc(-c2ccnc3c(C#N)cnn23)c1 [Zaleplon],1.33 ± 0.12,1.19 ± 0.12,1.3 ± 0.071,1.13 ± 0.27,1.23 ± 0.055,1.32 ± 0.12,–,0.867 ± 0.12,0.973 ± 0.36,0.625 ± 0.23,1.19 ± 0.23,0.987 ± 0.22,0.908 ± 0.1,–,0.642 ± 0.29,–
Oc1cc2c(cc1O)[C@H]1c3ccccc3CN[C@@H]1CC2 (racemic) [Dihydrexidine hydrochloride],1.65 ± 0.074,1.21 ± 0.088,2.13 ± 0.22,1.2 ± 0.3,1.32 ± 0.064,1.14 ± 0.1,0.784 ± 0.11,0.8557 ± 0.0046,1.41 ± 0.062,0.388 ± 0.085,0.914 ± 0.13,1.02 ± 0.18,0.792 ± 0.093,–,–,–

# Compounds from the list above that have an aryl methoxy group:
Compound,"Hoechst total cell count ratio [1, 7]","Hoechst total cell count ratio [1, 8]","Hoechst total cell count ratio [1, 9]","Hoechst total cell count ratio [2, 7]","Hoechst total cell count ratio [2, 8]","Hoechst total cell count ratio [2, 9]",transgenic luciferase activity [3],"transfection efficiency [4, 7]","transfection efficiency [4, 8]","transfection efficiency [4, 9]","transfection efficiency [5, 7]","transfection efficiency [5, 8]","transfection efficiency [5, 9]","transgenic luciferase activity [6, 7]","transgenic luciferase activity [6, 9]","transgenic luciferase activity [6, 8]"
COc1cc([C@@H]2c3cc4c(cc3[C@H](O)[C@H]3COC(=O)[C@H]23)OCO4)cc(OC)c1OC [Podofilox],1.25 ± 0.15,0.673 ± 0.053,0.73 ± 0.067,0.791 ± 0.051,0.738 ± 0.075,0.775 ± 0.25,–,0.77 ± 0.18,0.55 ± 0.13,0.622 ± 0.042,0.8 ± 0.15,0.769 ± 0.095,0.766 ± 0.23,–,–,0.356 ± 0.096
COc1cc2c(cc1OC)[C@@]13CCN4CC5=CCO[C@H]6CC(=O)N2[C@H]1[C@H]6[C@H]5C[C@H]43 [Brucine],1.333 ± 0.0021,1.31 ± 0.1,1.33 ± 0.036,1.21 ± 0.24,1.23 ± 0.036,1.3 ± 0.25,–,1.06 ± 0.036,1.52 ± 0.52,0.714 ± 0.28,0.891 ± 0.25,1.14 ± 0.072,0.694 ± 0.14,–,0.729 ± 0.5,–
